Assay results: PMC10291182
For at least one entry, the source does not settle the construct or the ends of the probe. For part of these data: No signal at the amounts used counts as a negative.

Assays:
[1] = test system: GST-LcCBF3 (Litchi chinensis); experiment: competition with a labelled probe; conditions: mutated probe did not compete with labeled N1; LightShift chemiluminescent EMSA kit, room temperature, 6% native polyacrylamide gel; salt and pH not stated; recombinant protein; protein details: GST (pGEX-4T-1, N-terminal)
[2] = test system: GST-LcCBF3 (Litchi chinensis); experiment: EMSA; conditions: unlabeled probe competes; LightShift chemiluminescent EMSA kit, room temperature, 6% native polyacrylamide gel; salt and pH not stated; recombinant protein; protein details: GST (pGEX-4T-1, N-terminal)
GST = experiment: EMSA; conditions: GST alone; LightShift chemiluminescent EMSA kit, room temperature, 6% native polyacrylamide gel; salt and pH not stated; recombinant protein

Row | Sequence | binding result [1] | binding result [2] | binding result (GST)
1 | GTGACATCAAGAGAAAAAAAAGACGACCAC (double strand) [LcMFTpro probe-mutant] | no binding |  | 
2 | GTGACATCAAGAGCCGACAAAGACGACCAC (double strand) [LcMFTpro probe] |  | binds | no binding
